Laboratory results from patent US8895695B2 (priority 2003, dated 2014).

Assay: general procedure: Fmoc solid-phase peptide synthesis; Fmoc-ProO-chlorotritylresin, Fmoc-DProO-chlorotritylresin, Fmoc-S-(4-S-Alloc-amino)-ProO-chlorotritylresin
Details: whole synthesis, scale of the general procedure 60 mg resin per vessel
In the case of “Arg-Arg-Cit-Cys-Arg-Gly-^DPro-Arg-Arg-2-Nal-Cys-Tyr-Gln-Lys-^DPro^LPro”, the “final purity (method not given)” value is reported as 95%. For “Asp-Arg-Cit-Cys-Arg-Gly-^DPro-Arg-Arg-2-Nal-Cys-Tyr-Gln-Lys-^DPro^LPro”, the “final purity (method not given)” value was 95%. With “Gln-Arg-Cit-Cys-Arg-Gly-^DPro-Arg-Arg-2-Nal-Cys-Tyr-Gln-Lys-^DPro^LPro” the “final purity (method not given)” value was 95%. In the case of “Glu-Arg-Cit-Cys-Arg-Gly-^DPro-Arg-Arg-2-Nal-Cys-Tyr-Gln-Lys-^DPro^LPro”, the “final purity (method not given)” value is reported as 95%. In the case of “Gly-Arg-Cit-Cys-Arg-Gly-^DPro-Arg-Arg-2-Nal-Cys-Tyr-Cit-Lys-^DPro^LPro”, the “final purity (method not given)” value is reported as 95%. In the case of “His-Arg-Cit-Cys-Arg-Gly-^DPro-Arg-Arg-2-Nal-Cys-Tyr-Gln-Lys-^DPro^LPro”, the “final purity (method not given)” value is reported as 95%. In the case of “Ile-Arg-Cit-Cys-Arg-Gly-^DPro-Arg-Arg-2-Nal-Cys-Tyr-Gln-Lys-^DPro^LPro”, the “final purity (method not given)” value is reported as 95%. In the case of “Leu-Arg-Cit-Cys-Arg-Gly-^DPro-Arg-Arg-2-Nal-Cys-Tyr-Gln-Lys-^DPro^LPro”, the “final purity (method not given)” value is reported as 87%. For “Met-Arg-Cit-Cys-Arg-Gly-^DPro-Arg-Arg-2-Nal-Cys-Tyr-Gln-Lys-^DPro^LPro”, the “final purity (method not given)” value was 95%. In the case of “Phe-Arg-Cit-Cys-Arg-Gly-^DPro-Arg-Arg-Trp-Cys-Tyr-Cit-Lys-^DPro^LPro”, the “final purity (method not given)” value is reported as 95%. For “Pip-Arg-Tyr-Cys-Tyr-Gln-Lys-^DPro-Pro-Tyr-Arg-Cit-Cys-Arg-Gly^DPro”, the “final purity (method not given)” value was 95%. In the case of “Ser-Arg-Cit-Cys-Arg-Gly-^DPro-Arg-Arg-2-Nal-Cys-Tyr-Gln-Lys-^DPro^LPro”, the “final purity (method not given)” value is reported as 95%. In the case of “Thr-Arg-Cit-Cys-Arg-Gly-^DPro-Arg-Arg-2-Nal-Cys-Tyr-Gln-Lys-^DPro^LPro”, the “final purity (method not given)” value is reported as 95%. In the case of “Trp-Arg-Cit-Cys-Arg-Gly-^DPro-Arg-Arg-2-Nal-Cys-Tyr-Gln-Lys-^DPro^LPro”, the “final purity (method not given)” value is reported as 95%. With “Tyr-4-PyrAla-Thr-Cys-Arg-Gly-^DPro-Arg-Arg-Trp-Cys-Tyr-Gln-Lys-^DPro^LPro” the “final purity (method not given)” value was 90%. For “Tyr-Arg-4F-Phe-Cys-Arg-Gly-^DPro-Arg-Arg-2-Nal-Cys-Tyr-Gln-Lys-^DPro^LPro”, the “final purity (method not given)” value was 95%. For “Tyr-Arg-Ala-Cys-Arg-Gly-^DPro-Arg-Arg-2-Nal-Cys-Tyr-Gln-Lys-^DPro^LPro”, the “final purity (method not given)” value was 95%. With “Tyr-Arg-Arg-Cys-Arg-Gly-^DPro-Arg-Arg-2-Nal-Cys-Tyr-Gln-Lys-^DPro^LPro” the “final purity (method not given)” value was 95%. With “Tyr-Arg-Asn-Cys-Arg-Gly-^DPro-Arg-Arg-2-Nal-Cys-Tyr-Gln-Lys-^DPro^LPro” the “final purity (method not given)” value was 95%. With “Tyr-Arg-Asp-Cys-Arg-Gly-^DPro-Arg-Arg-2-Nal-Cys-Tyr-Gln-Lys-^DPro^LPro” the “final purity (method not given)” value was 95%. With “Tyr-Arg-Cit-Cys-(EA)G-Gly-^DPro-Arg-Arg-2-Nal-Cys-Tyr-Cit-Lys-^DPro^LPro” the “final purity (method not given)” value was 76%. For “Tyr-Arg-Cit-Cys-Arg-Ala-^DPro-Arg-Arg-Trp-Cys-Tyr-Cit-Lys-^DPro^LPro”, the “final purity (method not given)” value was 95%. In the case of “Tyr-Arg-Cit-Cys-Arg-Gly-Gly-Arg-Arg-2-Nal-Cys-Tyr-Cit-Lys-^DPro^LPro”, the “final purity (method not given)” value is reported as 100%. In the case of “Tyr-Arg-Cit-Cys-Arg-Gly-Pro-Arg-(EA)G-2-Nal-Cys-Tyr-Cit-Lys-^DPro^LPro”, the “final purity (method not given)” value is reported as 90%. With “Tyr-Arg-Cit-Cys-Arg-Gly-^DPro-4F-Phe-Arg-2-Nal-Cys-Tyr-Gln-Lys-^DPro^LPro” the “final purity (method not given)” value was 95%. For “Tyr-Arg-Cit-Cys-Arg-Gly-^DPro-4F-Phe-Arg-Trp-Cys-Tyr-Cit-Lys-^DPro^LPro”, the “final purity (method not given)” value was 95%. With “Tyr-Arg-Cit-Cys-Arg-Gly-^DPro-(Im)G-Arg-2-Nal-Cys-Tyr-Cit-Lys-^DPro^LPro” the “final purity (method not given)” value was 95%. In the case of “Tyr-Arg-Cit-Cys-Arg-Gly-^DPro-Arg-(Pip)G-2-Nal-Cys-Tyr-Cit-Lys-^DPro^LPro”, the “final purity (method not given)” value is reported as 95%. With “Tyr-Arg-Cit-Cys-Arg-Gly-^DPro-Arg-Arg-2-Nal-Cys-Tyr-Ala-Lys-^DPro^LPro” the “final purity (method not given)” value was 95%. With “Tyr-Arg-Cit-Cys-Arg-Gly-^DPro-Arg-Arg-2-Nal-Cys-Tyr-Arg-Lys-^DPro^LPro” the “final purity (method not given)” value was 95%. With “Tyr-Arg-Cit-Cys-Arg-Gly-^DPro-Arg-Arg-2-Nal-Cys-Tyr-Asn-Lys-^DPro^LPro” the “final purity (method not given)” value was 95%. For “Tyr-Arg-Cit-Cys-Arg-Gly-^DPro-Arg-Arg-2-Nal-Cys-Tyr-Asp-Lys-^DPro^LPro”, the “final purity (method not given)” value was 95%. For “Tyr-Arg-Cit-Cys-Arg-Gly-^DPro-Arg-Arg-2-Nal-Cys-Tyr-Cit-Glu-^DPro^LPro”, the “final purity (method not given)” value was 95%. With “Tyr-Arg-Cit-Cys-Arg-Gly-^DPro-Arg-Arg-2-Nal-Cys-Tyr-Cit-NMeK-^DPro^LPro” the “final purity (method not given)” value was 85%. With “Tyr-Arg-Cit-Cys-Arg-Gly-^DPro-Arg-Arg-2-Nal-Cys-Tyr-Gln-Ala-^DPro^LPro” the “final purity (method not given)” value was 95%. With “Tyr-Arg-Cit-Cys-Arg-Gly-^DPro-Arg-Arg-2-Nal-Cys-Tyr-Gln-Asn-^DPro^LPro” the “final purity (method not given)” value was 95%. With “Tyr-Arg-Cit-Cys-Arg-Gly-^DPro-Arg-Arg-2-Nal-Cys-Tyr-Gln-Asp-^DPro^LPro” the “final purity (method not given)” value was 95%. In the case of “Tyr-Arg-Cit-Cys-Arg-Gly-^DPro-Arg-Arg-2-Nal-Cys-Tyr-Gln-Gln-^DPro^LPro”, the “final purity (method not given)” value is reported as 95%. In the case of “Tyr-Arg-Cit-Cys-Arg-Gly-^DPro-Arg-Arg-2-Nal-Cys-Tyr-Gln-Glu-^DPro^LPro”, the “final purity (method not given)” value is reported as 95%. In the case of “Tyr-Arg-Cit-Cys-Arg-Gly-^DPro-Arg-Arg-2-Nal-Cys-Tyr-Gln-Lys-^DPro^LPro [115]”, the “final purity (method not given)” value is reported as 95%. With “Tyr-Arg-Cit-Cys-Arg-Gly-^DPro-Arg-Arg-2-Nal-Cys-Tyr-Gln-Ser-^DPro^LPro” the “final purity (method not given)” value was 95%. In the case of “Tyr-Arg-Cit-Cys-Arg-Gly-^DPro-Arg-Arg-2-Nal-Cys-Tyr-His-Lys-^DPro^LPro”, the “final purity (method not given)” value is reported as 95%. In the case of “Tyr-Arg-Cit-Cys-Arg-Gly-^DPro-Arg-Arg-2-Nal-Cys-Tyr-Leu-Lys-^DPro^LPro”, the “final purity (method not given)” value is reported as 95%. In the case of “Tyr-Arg-Cit-Cys-Arg-Gly-^DPro-Arg-Arg-2-Nal-Cys-Tyr-Lys-Lys-^DPro^LPro”, the “final purity (method not given)” value is reported as 95%. For “Tyr-Arg-Cit-Cys-Arg-Gly-^DPro-Arg-Arg-2-Nal-Cys-Tyr-Met-Lys-^DPro^LPro”, the “final purity (method not given)” value was 95%. For “Tyr-Arg-Cit-Cys-Arg-Gly-^DPro-Arg-Arg-2-Nal-Cys-Tyr-NMeGly-Lys-^DPro^LPro”, the “final purity (method not given)” value was 89%. In the case of “Tyr-Arg-Cit-Cys-Arg-Gly-^DPro-Arg-Arg-2-Nal-Cys-Tyr-Ser-Lys-^DPro^LPro”, the “final purity (method not given)” value is reported as 95%. In the case of “Tyr-Arg-Cit-Cys-Arg-Gly-^DPro-Arg-Arg-2-Nal-Cys-Tyr-Tyr-Lys-^DPro^LPro”, the “final purity (method not given)” value is reported as 95%. For “Tyr-Arg-Cit-Cys-Arg-Gly-^DPro-Arg-Arg-Trp-Cys-Tyr-Cit-Gln-^DPro^LPro”, the “final purity (method not given)” value was 95%. In the case of “Tyr-Arg-Cit-Cys-Arg-Gly-^DPro-Arg-Arg-Trp-Cys-Tyr-Cit-Lys-^DProA8″-42”, the “final purity (method not given)” value is reported as 68%. In the case of “Tyr-Arg-Cit-Cys-Arg-Gly-^DPro-Arg-Arg-Trp-Cys-Tyr-Gln-Lys-^DPro^LPro”, the “final purity (method not given)” value is reported as 95%. In the case of “Tyr-Arg-Cit-Cys-Arg-Gly-^DPro-Arg-Arg-Tyr-Cys-Cit-Tyr-Lys-^DPro^LPro”, the “final purity (method not given)” value is reported as 83%. With “Tyr-Arg-Cit-Cys-Arg-Gly-^DPro-Arg-Arg-Tyr-Cys-Tyr-Cit-Lys-^DPro^LPro” the “final purity (method not given)” value was 95%. For “Tyr-Arg-Cit-Cys-Arg-Gly-^DPro-Arg-Arg-Tyr-Cys-Tyr-Gln-Lys-^DGln^LPro”, the “final purity (method not given)” value was 91%. In the case of “Tyr-Arg-Cit-Cys-Arg-Gly-^DPro-Arg-Orn-Trp-Cys-Tyr-Cit-Lys-^DPro^LPro”, the “final purity (method not given)” value is reported as 90%. In the case of “Tyr-Arg-Cit-Cys-Arg-Gly-^DPro-Cit-Arg-Trp-Cys-Tyr-Cit-Lys-^DPro^LPro”, the “final purity (method not given)” value is reported as 95%. With “Tyr-Arg-Cit-Cys-Arg-Gly-^DPro-Dab-Arg-Trp-Cys-Tyr-Gln-Lys-^DPro^LPro” the “final purity (method not given)” value was 95%. For “Tyr-Arg-Cit-Cys-Arg-Gly-^DPro-His-Arg-Trp-Cys-Tyr-Cit-Lys-^DPro^LPro”, the “final purity (method not given)” value was 95%. In the case of “Tyr-Arg-Cit-Cys-Arg-Gly-^DPro-IPegDab-Arg-Trp-Cys-Tyr-Cit-Lys-^DPro^LPro”, the “final purity (method not given)” value is reported as 95%. With “Tyr-Arg-Cit-Cys-Arg-Gly-^DPro-IsOrn-Arg-2-Nal-Cys-Tyr-Cit-Lys-^DPro^LPro” the “final purity (method not given)” value was 95%. With “Tyr-Arg-Cit-Cys-Arg-Gly-^DPro-Thr-Arg-2-Nal-Cys-Tyr-Gln-Lys-^DPro^LPro” the “final purity (method not given)” value was 95%. For “Tyr-Arg-Cit-Cys-Arg-Gly-^DPro-Trp-Arg-2-Nal-Cys-Tyr-Gln-Lys-^DPro^LPro”, the “final purity (method not given)” value was 95%. For “Tyr-Arg-Cit-Cys-Arg-Gly-^DPro-Tyr-Arg-2-Nal-Cys-Tyr-Gln-Lys-^DPro^LPro”, the “final purity (method not given)” value was 95%. In the case of “Tyr-Arg-Cit-Cys-Arg-Val-Gly-Arg-Arg-2-Nal-Cys-Tyr-Cit-Lys-^DPro^LPro”, the “final purity (method not given)” value is reported as 100%. In the case of “Tyr-Arg-Cit-Cys-Dab-Gly-^DPro-Arg-Arg-Trp-Cys-Tyr-Gln-Lys-^DPro^LPro”, the “final purity (method not given)” value is reported as 95%. For “Tyr-Arg-Cit-Cys-Ser-Gly-^DPro-Arg-Arg-2-Nal-Cys-Tyr-Gln-Lys-^DPro^LPro”, the “final purity (method not given)” value was 95%. With “Tyr-Arg-Cit-Dab-Arg-Gly-^DPro-Arg-Arg-Trp-Glu-Tyr-Cit-Lys-^DPro^LPro” the “final purity (method not given)” value was 92%. For “Tyr-Arg-Cit-Glu-Arg-Gly-^DPro-Arg-Arg-Trp-Dab-Tyr-Cit-Lys-^DPro^LPro”, the “final purity (method not given)” value was 72%. In the case of “Tyr-Arg-Cit-Phe-Arg-Cit-Pro-Arg-Arg-2-Nal-Phe-Tyr-Cit-Lys-^DPro^LPro”, the “final purity (method not given)” value is reported as 100%.

Same assay, conditions: whole synthesis, scale of the general procedure 60 mg resin per vessel; run 1
With “Tyr-Arg-Cit-Cys-Arg-Gly-^DPro-Arg-Arg-2-Nal-Cys-Tyr-Thr-Lys-^DPro^LPro” the “final purity (method not given)” value was 90%. In the case of “Tyr-Arg-Cit-Cys-Arg-Gly-^DPro-Arg-Arg-2-Nal-Cys-Tyr-Thr-Lys-^DPro^LPro [132]”, the “final purity (method not given)” value is reported as 89%.
